# Reference: the supplement of paper PMC6411743
# ± gives the standard deviation of the averaged measurements. The list shows a part of the results.
# Key:
# Experiment in all cases: NP40-soluble protein abundance relative to vehicle (solubility fold change) (ratio); higher = more soluble protein in presence of GTP
# [1] = molecular target: T1, UniProt Q8IWR0 and related entries
# T1 sequence (whole entry): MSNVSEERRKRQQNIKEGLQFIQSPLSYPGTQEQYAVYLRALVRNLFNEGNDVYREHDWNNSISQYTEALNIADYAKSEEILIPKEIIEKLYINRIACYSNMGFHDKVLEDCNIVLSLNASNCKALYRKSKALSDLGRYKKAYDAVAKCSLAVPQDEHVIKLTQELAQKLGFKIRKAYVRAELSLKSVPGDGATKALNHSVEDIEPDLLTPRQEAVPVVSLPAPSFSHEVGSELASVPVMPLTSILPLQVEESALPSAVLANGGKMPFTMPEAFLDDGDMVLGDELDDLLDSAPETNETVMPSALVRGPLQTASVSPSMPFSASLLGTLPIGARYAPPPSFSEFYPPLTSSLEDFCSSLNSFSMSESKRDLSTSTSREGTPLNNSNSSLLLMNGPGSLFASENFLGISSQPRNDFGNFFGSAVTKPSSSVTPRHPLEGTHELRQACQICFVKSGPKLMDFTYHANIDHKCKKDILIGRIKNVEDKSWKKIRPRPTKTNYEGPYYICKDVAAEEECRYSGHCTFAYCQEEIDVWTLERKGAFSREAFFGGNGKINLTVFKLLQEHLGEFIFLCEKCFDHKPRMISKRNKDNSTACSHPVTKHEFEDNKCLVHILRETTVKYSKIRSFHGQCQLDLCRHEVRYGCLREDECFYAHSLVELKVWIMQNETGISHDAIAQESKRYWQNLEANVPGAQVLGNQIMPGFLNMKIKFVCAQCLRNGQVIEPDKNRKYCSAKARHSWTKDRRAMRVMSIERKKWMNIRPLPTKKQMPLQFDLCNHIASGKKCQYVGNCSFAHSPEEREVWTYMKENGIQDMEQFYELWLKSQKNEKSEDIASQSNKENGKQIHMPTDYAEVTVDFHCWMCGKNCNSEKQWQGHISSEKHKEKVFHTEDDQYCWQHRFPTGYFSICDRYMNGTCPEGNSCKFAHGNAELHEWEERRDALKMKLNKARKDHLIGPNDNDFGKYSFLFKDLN
# Method in brief: (§1)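 Each value is a fold change relative to the detergent-processed vehicle, calculated per replicate from vsn-normalised intensities. Jurkat crude lysate received eight concentrations (0.1 to 10 mM) for 10 min at room temperature and 3 min at 37 °C, then was solubilised in 0.8% NP40 with benzonase (60 min, 4 °C). The ultracentrifuged supernatant was TMT-labelled and run by LC-MS/MS in three independent experiments.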
# UniProt Q8N0Z3 = molecular target: T2, UniProt Q8N0Z3
# T2 sequence (whole entry): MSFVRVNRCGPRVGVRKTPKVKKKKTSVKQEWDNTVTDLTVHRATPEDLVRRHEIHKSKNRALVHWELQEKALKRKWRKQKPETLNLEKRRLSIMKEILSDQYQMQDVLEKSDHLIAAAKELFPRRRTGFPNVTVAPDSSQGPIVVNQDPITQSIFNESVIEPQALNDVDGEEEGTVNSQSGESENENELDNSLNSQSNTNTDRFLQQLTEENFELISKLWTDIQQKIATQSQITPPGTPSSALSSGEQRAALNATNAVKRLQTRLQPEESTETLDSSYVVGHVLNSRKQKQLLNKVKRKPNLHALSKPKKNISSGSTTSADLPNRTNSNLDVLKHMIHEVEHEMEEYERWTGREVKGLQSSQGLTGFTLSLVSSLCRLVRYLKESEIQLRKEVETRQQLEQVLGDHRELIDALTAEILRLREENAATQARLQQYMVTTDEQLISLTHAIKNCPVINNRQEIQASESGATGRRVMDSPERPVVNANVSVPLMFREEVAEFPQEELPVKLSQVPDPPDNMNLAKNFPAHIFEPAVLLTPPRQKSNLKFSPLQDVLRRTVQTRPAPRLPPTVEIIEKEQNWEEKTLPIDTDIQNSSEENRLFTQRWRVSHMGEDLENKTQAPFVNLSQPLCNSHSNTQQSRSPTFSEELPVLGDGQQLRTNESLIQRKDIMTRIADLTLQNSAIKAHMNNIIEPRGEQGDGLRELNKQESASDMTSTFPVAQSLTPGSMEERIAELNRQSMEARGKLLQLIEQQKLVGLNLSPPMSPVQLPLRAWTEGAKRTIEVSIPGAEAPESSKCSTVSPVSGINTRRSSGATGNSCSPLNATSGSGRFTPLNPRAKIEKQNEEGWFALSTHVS
# Method in brief: as §1
# [2] = molecular target: T3, UniProt Q8N1G0 and related entries
# T3 sequence (whole entry): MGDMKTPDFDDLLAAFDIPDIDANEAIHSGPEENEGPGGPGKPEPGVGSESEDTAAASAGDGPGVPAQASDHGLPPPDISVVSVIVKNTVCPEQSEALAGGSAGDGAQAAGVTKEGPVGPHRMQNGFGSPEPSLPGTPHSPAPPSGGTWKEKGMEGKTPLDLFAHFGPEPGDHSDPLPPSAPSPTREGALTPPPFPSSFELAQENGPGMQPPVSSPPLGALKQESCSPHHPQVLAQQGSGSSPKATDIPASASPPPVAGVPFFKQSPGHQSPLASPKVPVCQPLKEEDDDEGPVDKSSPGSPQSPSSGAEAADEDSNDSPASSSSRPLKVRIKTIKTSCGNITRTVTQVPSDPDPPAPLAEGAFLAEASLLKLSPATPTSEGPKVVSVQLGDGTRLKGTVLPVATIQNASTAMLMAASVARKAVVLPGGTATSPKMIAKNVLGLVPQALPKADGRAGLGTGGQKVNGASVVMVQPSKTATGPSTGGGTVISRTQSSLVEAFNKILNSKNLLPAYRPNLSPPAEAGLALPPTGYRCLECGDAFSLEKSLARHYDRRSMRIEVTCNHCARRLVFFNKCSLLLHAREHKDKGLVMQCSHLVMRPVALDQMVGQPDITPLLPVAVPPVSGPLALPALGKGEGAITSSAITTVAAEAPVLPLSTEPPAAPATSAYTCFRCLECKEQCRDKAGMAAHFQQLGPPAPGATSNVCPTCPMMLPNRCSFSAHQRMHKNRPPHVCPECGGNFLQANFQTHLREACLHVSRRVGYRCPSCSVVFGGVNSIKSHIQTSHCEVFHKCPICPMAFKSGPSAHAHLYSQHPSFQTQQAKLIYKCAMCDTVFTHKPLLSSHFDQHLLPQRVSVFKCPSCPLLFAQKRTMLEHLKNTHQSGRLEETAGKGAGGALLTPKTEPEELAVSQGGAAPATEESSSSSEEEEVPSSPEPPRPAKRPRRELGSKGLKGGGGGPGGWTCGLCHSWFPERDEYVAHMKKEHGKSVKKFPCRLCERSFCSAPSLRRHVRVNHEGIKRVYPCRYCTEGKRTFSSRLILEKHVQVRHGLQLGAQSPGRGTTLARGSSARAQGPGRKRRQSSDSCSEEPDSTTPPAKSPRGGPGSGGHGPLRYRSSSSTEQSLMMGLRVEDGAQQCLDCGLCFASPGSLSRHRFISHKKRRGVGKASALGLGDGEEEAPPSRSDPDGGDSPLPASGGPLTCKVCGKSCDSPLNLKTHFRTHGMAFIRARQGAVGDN
# Method in brief: as §1
# [3] = molecular target: T4, UniProt Q8N4Q1 and related entries
# T4 sequence (whole entry): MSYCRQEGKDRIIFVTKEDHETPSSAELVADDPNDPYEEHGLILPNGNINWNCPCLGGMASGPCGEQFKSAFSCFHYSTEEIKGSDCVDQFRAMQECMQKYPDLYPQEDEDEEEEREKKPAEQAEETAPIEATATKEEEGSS
# Method in brief: as §1
# [4] = molecular target: T5, UniProt Q8N573 and related entries
# T5 sequence (whole entry): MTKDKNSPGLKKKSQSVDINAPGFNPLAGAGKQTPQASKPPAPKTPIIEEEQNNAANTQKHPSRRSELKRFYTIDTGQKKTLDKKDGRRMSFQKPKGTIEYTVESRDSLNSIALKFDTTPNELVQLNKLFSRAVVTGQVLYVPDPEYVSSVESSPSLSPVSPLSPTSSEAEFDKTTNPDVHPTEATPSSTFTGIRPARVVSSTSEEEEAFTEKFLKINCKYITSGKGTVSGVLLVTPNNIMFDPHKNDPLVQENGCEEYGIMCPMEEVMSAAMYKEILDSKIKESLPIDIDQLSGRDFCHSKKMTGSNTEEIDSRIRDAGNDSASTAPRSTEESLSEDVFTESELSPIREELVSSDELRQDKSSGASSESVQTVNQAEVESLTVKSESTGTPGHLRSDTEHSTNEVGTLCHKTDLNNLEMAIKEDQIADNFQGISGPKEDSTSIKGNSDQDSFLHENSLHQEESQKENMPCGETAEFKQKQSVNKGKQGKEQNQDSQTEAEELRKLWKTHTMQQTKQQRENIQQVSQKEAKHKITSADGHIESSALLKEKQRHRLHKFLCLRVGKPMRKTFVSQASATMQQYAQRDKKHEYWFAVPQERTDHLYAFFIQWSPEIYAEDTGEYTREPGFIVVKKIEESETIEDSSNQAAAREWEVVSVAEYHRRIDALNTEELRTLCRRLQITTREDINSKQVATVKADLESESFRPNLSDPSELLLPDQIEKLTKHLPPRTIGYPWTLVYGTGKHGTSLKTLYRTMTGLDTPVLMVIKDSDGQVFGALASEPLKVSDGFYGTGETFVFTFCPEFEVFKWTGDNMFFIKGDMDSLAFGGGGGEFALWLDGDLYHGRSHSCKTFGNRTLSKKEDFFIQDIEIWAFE
# Method in brief: as §1
# [5] = molecular target: T6, UniProt Q8N5A5 and related entries
# T6 sequence (whole entry): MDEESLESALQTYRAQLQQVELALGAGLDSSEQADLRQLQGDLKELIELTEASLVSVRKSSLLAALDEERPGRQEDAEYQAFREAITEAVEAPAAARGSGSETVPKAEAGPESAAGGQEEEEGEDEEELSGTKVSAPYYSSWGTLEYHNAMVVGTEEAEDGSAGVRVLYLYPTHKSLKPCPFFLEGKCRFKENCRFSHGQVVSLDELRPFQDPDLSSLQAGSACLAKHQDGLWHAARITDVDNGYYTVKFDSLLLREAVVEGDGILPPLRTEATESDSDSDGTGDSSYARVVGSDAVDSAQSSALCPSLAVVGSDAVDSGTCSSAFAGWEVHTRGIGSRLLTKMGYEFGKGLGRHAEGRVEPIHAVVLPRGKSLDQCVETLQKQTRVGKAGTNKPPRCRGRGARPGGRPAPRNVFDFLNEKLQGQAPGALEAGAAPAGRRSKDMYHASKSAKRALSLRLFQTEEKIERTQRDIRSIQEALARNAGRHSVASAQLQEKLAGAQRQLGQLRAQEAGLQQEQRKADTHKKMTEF
# Method in brief: as §1
smiles,measurement,setting,value
Nc1nc2c(ncn2[C@@H]2O[C@H](COP(=O)(O)OP(=O)(O)OP(=O)(O)O)[C@@H](O)[C@H]2O)c(=O)[nH]1 [guanosine triphosphate],NP40-soluble protein abundance,[1]; concentration: 4mM,1.16 ± 0.076
same,NP40-soluble protein abundance,[1]; concentration: 6mM,1.13 ± 0.039
same,NP40-soluble protein abundance,[1]; concentration: 8mM,1.14 ± 0.064
same,NP40-soluble protein abundance,[1]; concentration: 10mM,1.12 ± 0.028
same,NP40-soluble protein abundance,UniProt Q8N0Z3; concentration: 0.1mM,1.02 ± 0.077
same,NP40-soluble protein abundance,UniProt Q8N0Z3; concentration: 0.5mM,0.957 ± 0.066
same,NP40-soluble protein abundance,UniProt Q8N0Z3; concentration: 1mM,0.992 ± 0.038
same,NP40-soluble protein abundance,UniProt Q8N0Z3; concentration: 2mM,0.979 ± 0.04
same,NP40-soluble protein abundance,UniProt Q8N0Z3; concentration: 4mM,0.932 ± 0.059
same,NP40-soluble protein abundance,UniProt Q8N0Z3; concentration: 6mM,0.994 ± 0.1
same,NP40-soluble protein abundance,UniProt Q8N0Z3; concentration: 8mM,0.954 ± 0.075
same,NP40-soluble protein abundance,UniProt Q8N0Z3; concentration: 10mM,0.962 ± 0.026
same,NP40-soluble protein abundance,[2]; concentration: 0.1mM,1.06 ± 0.1
same,NP40-soluble protein abundance,[2]; concentration: 0.5mM,1.07 ± 0.095
same,NP40-soluble protein abundance,[2]; concentration: 1mM,1.16 ± 0.2
same,NP40-soluble protein abundance,[2]; concentration: 2mM,1.13 ± 0.16
same,NP40-soluble protein abundance,[2]; concentration: 4mM,1.16 ± 0.31
same,NP40-soluble protein abundance,[2]; concentration: 6mM,1.13 ± 0.2
same,NP40-soluble protein abundance,[2]; concentration: 8mM,1.25 ± 0.27
same,NP40-soluble protein abundance,[2]; concentration: 10mM,1.15 ± 0.28
same,NP40-soluble protein abundance,[3]; concentration: 0.1mM,0.911 ± 0.013
same,NP40-soluble protein abundance,[3]; concentration: 0.5mM,0.975 ± 0.083
same,NP40-soluble protein abundance,[3]; concentration: 1mM,1.065 ± 0.0097
same,NP40-soluble protein abundance,[3]; concentration: 2mM,1.01 ± 0.08
same,NP40-soluble protein abundance,[3]; concentration: 4mM,0.991 ± 0.078
same,NP40-soluble protein abundance,[3]; concentration: 6mM,1.02 ± 0.072
same,NP40-soluble protein abundance,[3]; concentration: 8mM,1.08 ± 0.065
same,NP40-soluble protein abundance,[3]; concentration: 10mM,1.1 ± 0.077
same,NP40-soluble protein abundance,[4]; concentration: 0.1mM,0.964 ± 0.12
same,NP40-soluble protein abundance,[4]; concentration: 0.5mM,0.904 ± 0.1
same,NP40-soluble protein abundance,[4]; concentration: 1mM,0.949 ± 0.13
same,NP40-soluble protein abundance,[4]; concentration: 2mM,0.935 ± 0.12
same,NP40-soluble protein abundance,[4]; concentration: 4mM,0.919 ± 0.17
same,NP40-soluble protein abundance,[4]; concentration: 6mM,0.887 ± 0.19
same,NP40-soluble protein abundance,[4]; concentration: 8mM,0.844 ± 0.13
same,NP40-soluble protein abundance,[4]; concentration: 10mM,0.906 ± 0.16
same,NP40-soluble protein abundance,[5]; concentration: 0.1mM,1.1 ± 0.064
same,NP40-soluble protein abundance,[5]; concentration: 0.5mM,1.07 ± 0.076
same,NP40-soluble protein abundance,[5]; concentration: 1mM,1.07 ± 0.068
same,NP40-soluble protein abundance,[5]; concentration: 2mM,1.12 ± 0.039
same,NP40-soluble protein abundance,[5]; concentration: 4mM,1.11 ± 0.081
same,NP40-soluble protein abundance,[5]; concentration: 6mM,1.08 ± 0.065

# 2 entries picked at random from the list so far:
smiles,measurement,setting,value
Nc1nc2c(ncn2[C@@H]2O[C@H](COP(=O)(O)OP(=O)(O)OP(=O)(O)O)[C@@H](O)[C@H]2O)c(=O)[nH]1 [guanosine triphosphate],NP40-soluble protein abundance,[2]; concentration: 4mM,1.16 ± 0.31
same,NP40-soluble protein abundance,[2]; concentration: 2mM,1.13 ± 0.16
